Data source: PubChem BioAssay AID1508597 (Cure First, 2020)
Screen: 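Survival screen with siRNA in ovarian cancer cells derived from patients, with or without rucaparib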 (primary screen). System: human ovarian carcinoma lines grown from tumours: OCI-P5x (papillary serous) and OCI-C5x (clear cell). Reagent: siRNA pool against human genes, 1.25 pmol siRNA per well. Duration: 72 h or 96 h, depending on the cell culture. Challenge: rucaparib 20 µM (about IC30) or vehicle, present until read-out. Read-out: 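Luminescent ATP-based viability assay read 72 or 96 h after transfection, depending on culture, given as normalised percent viability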. Scale: viability, normalised: higher = more viable cells remaining. Active means: 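Active when normalised viability falls below 80 percent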. Calls: active = viability under 80%; inactive = viability 80% or more.
In all, the deposit lists about 2,100 reagents; this is a part drawn at random. 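Calls flag viability under 80% in either arm, not effects specific to rucaparib; the reference for percent is not stated.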 A number with no mark means an inactive call. Some reagents were tested in more than one well and are listed for each. The record does not give: the 100% reference.

target	rucaparib or vehicle	cell line	technical replicate	viability, normalised (%)
FOXP3 (forkhead box P3)	Rucaparib	OCI-C5x (clear cell)	1	59.2 (active)
FOXP3 (forkhead box P3)	Rucaparib	OCI-C5x (clear cell)	2	50.4 (active)
FOXP3 (forkhead box P3)	Rucaparib	OCI-C5x (clear cell)	3	51.8 (active)
FOXP3 (forkhead box P3)	Rucaparib	OCI-P5x (serous)	1	95.3
FOXP3 (forkhead box P3)	Rucaparib	OCI-P5x (serous)	2	101
FOXP3 (forkhead box P3)	Rucaparib	OCI-P5x (serous)	3	104
FOXP3 (forkhead box P3)	Vehicle	OCI-C5x (clear cell)	1	49.5 (active)
FOXP3 (forkhead box P3)	Vehicle	OCI-C5x (clear cell)	2	61.5 (active)
FOXP3 (forkhead box P3)	Vehicle	OCI-C5x (clear cell)	3	53.8 (active)
FOXP3 (forkhead box P3)	Vehicle	OCI-P5x (serous)	1	88
FOXP3 (forkhead box P3)	Vehicle	OCI-P5x (serous)	2	93
FOXP3 (forkhead box P3)	Vehicle	OCI-P5x (serous)	3	136
TSSK4 (testis specific serine kinase 4)	Rucaparib	OCI-C5x (clear cell)	1	59.7 (active)
TSSK4 (testis specific serine kinase 4)	Rucaparib	OCI-C5x (clear cell)	2	35.3 (active)
TSSK4 (testis specific serine kinase 4)	Rucaparib	OCI-C5x (clear cell)	3	49.3 (active)
TSSK4 (testis specific serine kinase 4)	Rucaparib	OCI-P5x (serous)	1	74.1 (active)
TSSK4 (testis specific serine kinase 4)	Rucaparib	OCI-P5x (serous)	2	83.5
TSSK4 (testis specific serine kinase 4)	Rucaparib	OCI-P5x (serous)	3	95.7
TSSK4 (testis specific serine kinase 4)	Vehicle	OCI-C5x (clear cell)	1	56.4 (active)
TSSK4 (testis specific serine kinase 4)	Vehicle	OCI-C5x (clear cell)	2	45.3 (active)
TSSK4 (testis specific serine kinase 4)	Vehicle	OCI-C5x (clear cell)	3	39.4 (active)
TSSK4 (testis specific serine kinase 4)	Vehicle	OCI-P5x (serous)	1	67 (active)
TSSK4 (testis specific serine kinase 4)	Vehicle	OCI-P5x (serous)	2	61.1 (active)
TSSK4 (testis specific serine kinase 4)	Vehicle	OCI-P5x (serous)	3	58.1 (active)
UBE2I (ubiquitin conjugating enzyme E2 I)	Rucaparib	OCI-C5x (clear cell)	1	47 (active)
UBE2I (ubiquitin conjugating enzyme E2 I)	Rucaparib	OCI-C5x (clear cell)	1	51.1 (active)
UBE2I (ubiquitin conjugating enzyme E2 I)	Rucaparib	OCI-C5x (clear cell)	2	41 (active)
UBE2I (ubiquitin conjugating enzyme E2 I)	Rucaparib	OCI-C5x (clear cell)	2	46.6 (active)
UBE2I (ubiquitin conjugating enzyme E2 I)	Rucaparib	OCI-C5x (clear cell)	3	50.6 (active)
UBE2I (ubiquitin conjugating enzyme E2 I)	Rucaparib	OCI-C5x (clear cell)	3	59.3 (active)
UBE2I (ubiquitin conjugating enzyme E2 I)	Rucaparib	OCI-P5x (serous)	1	81.7
UBE2I (ubiquitin conjugating enzyme E2 I)	Rucaparib	OCI-P5x (serous)	2	67.1 (active)
UBE2I (ubiquitin conjugating enzyme E2 I)	Rucaparib	OCI-P5x (serous)	2	80 (active)
UBE2I (ubiquitin conjugating enzyme E2 I)	Rucaparib	OCI-P5x (serous)	3	72.7 (active)
UBE2I (ubiquitin conjugating enzyme E2 I)	Rucaparib	OCI-P5x (serous)	3	68.1 (active)
UBE2I (ubiquitin conjugating enzyme E2 I)	Vehicle	OCI-C5x (clear cell)	1	48.2 (active)
UBE2I (ubiquitin conjugating enzyme E2 I)	Vehicle	OCI-C5x (clear cell)	1	42.1 (active)
UBE2I (ubiquitin conjugating enzyme E2 I)	Vehicle	OCI-C5x (clear cell)	2	45.2 (active)
UBE2I (ubiquitin conjugating enzyme E2 I)	Vehicle	OCI-C5x (clear cell)	2	42.2 (active)
UBE2I (ubiquitin conjugating enzyme E2 I)	Vehicle	OCI-C5x (clear cell)	3	45.8 (active)
UBE2I (ubiquitin conjugating enzyme E2 I)	Vehicle	OCI-C5x (clear cell)	3	50.9 (active)
UBE2I (ubiquitin conjugating enzyme E2 I)	Vehicle	OCI-P5x (serous)	1	97.3
UBE2I (ubiquitin conjugating enzyme E2 I)	Vehicle	OCI-P5x (serous)	1	77.2 (active)
UBE2I (ubiquitin conjugating enzyme E2 I)	Vehicle	OCI-P5x (serous)	2	77.6 (active)
UBE2I (ubiquitin conjugating enzyme E2 I)	Vehicle	OCI-P5x (serous)	2	81.5
UBE2I (ubiquitin conjugating enzyme E2 I)	Vehicle	OCI-P5x (serous)	3	71.2 (active)
UBE2I (ubiquitin conjugating enzyme E2 I)	Vehicle	OCI-P5x (serous)	3	88.3
WDR5 (WD repeat domain 5)	Rucaparib	OCI-C5x (clear cell)	1	53.2 (active)
WDR5 (WD repeat domain 5)	Rucaparib	OCI-C5x (clear cell)	2	53.6 (active)
WDR5 (WD repeat domain 5)	Rucaparib	OCI-C5x (clear cell)	3	50.5 (active)
WDR5 (WD repeat domain 5)	Rucaparib	OCI-P5x (serous)	1	43.9 (active)
WDR5 (WD repeat domain 5)	Rucaparib	OCI-P5x (serous)	2	37.4 (active)
WDR5 (WD repeat domain 5)	Rucaparib	OCI-P5x (serous)	3	48.2 (active)
WDR5 (WD repeat domain 5)	Vehicle	OCI-C5x (clear cell)	1	44.6 (active)
WDR5 (WD repeat domain 5)	Vehicle	OCI-C5x (clear cell)	2	42.2 (active)
WDR5 (WD repeat domain 5)	Vehicle	OCI-C5x (clear cell)	3	31.1 (active)
WDR5 (WD repeat domain 5)	Vehicle	OCI-P5x (serous)	1	56.7 (active)
WDR5 (WD repeat domain 5)	Vehicle	OCI-P5x (serous)	2	58.4 (active)
WDR5 (WD repeat domain 5)	Vehicle	OCI-P5x (serous)	3	57.9 (active)

Copied from the listing for reference:
target	rucaparib or vehicle	cell line	technical replicate	viability, normalised (%)
UBE2I (ubiquitin conjugating enzyme E2 I)	Rucaparib	OCI-C5x (clear cell)	2	46.6 (active)
UBE2I (ubiquitin conjugating enzyme E2 I)	Rucaparib	OCI-C5x (clear cell)	3	50.6 (active)
UBE2I (ubiquitin conjugating enzyme E2 I)	Rucaparib	OCI-C5x (clear cell)	3	59.3 (active)
UBE2I (ubiquitin conjugating enzyme E2 I)	Rucaparib	OCI-P5x (serous)	1	81.7
UBE2I (ubiquitin conjugating enzyme E2 I)	Rucaparib	OCI-P5x (serous)	2	67.1 (active)
UBE2I (ubiquitin conjugating enzyme E2 I)	Rucaparib	OCI-P5x (serous)	2	80 (active)
UBE2I (ubiquitin conjugating enzyme E2 I)	Rucaparib	OCI-P5x (serous)	3	72.7 (active)
UBE2I (ubiquitin conjugating enzyme E2 I)	Rucaparib	OCI-P5x (serous)	3	68.1 (active)
